Measured values reported in PMC6406603.
Results are given in words; binding and its absence hold for the method and conditions named. Some entries that bind do so weakly or less than the wild type.

Sequences of proteins named here, by UniProt entry; tags and fusion partners are left off. A change or cut given only in a name is not applied to a line headed by its entry. Residues count along the entry.
UniProt P55087, residues 23-323: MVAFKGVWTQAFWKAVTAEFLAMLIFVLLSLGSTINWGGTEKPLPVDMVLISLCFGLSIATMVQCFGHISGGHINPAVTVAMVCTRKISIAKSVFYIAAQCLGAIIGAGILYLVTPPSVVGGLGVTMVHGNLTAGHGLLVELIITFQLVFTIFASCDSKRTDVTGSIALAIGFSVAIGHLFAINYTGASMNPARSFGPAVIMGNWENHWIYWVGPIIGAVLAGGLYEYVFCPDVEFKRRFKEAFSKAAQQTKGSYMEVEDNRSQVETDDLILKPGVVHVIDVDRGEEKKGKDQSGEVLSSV

Experiments:
[1] = target: human M23-AQP4 expressed in DI TNC1 cells (human) (UniProt P55087); experiment: native gel or EMSA; 2D BN/SDS-PAGE: 3-9% gradient blue native PAGE then 13% SDS-PAGE, AQP4 immunoblot; whole cells lysed in BN buffer (1% DDM, 12 mM NaCl, 500 mM 6-aminohexanoic acid, 20 mM Bis-Tris pH 7.0)
[2] = target: human M23-AQP4 expressed in DI TNC1 cells (human) (UniProt P55087); experiment: SEC; native SEC (nSEC) on Sephacryl S-500 16/60, RT, 0.15% DDM, 150 mM NaCl; DDM extract (3% DDM) of plasma membrane-enriched vesicles injected; AQP4 in fractions by dot blot
[3] = target: human M23-AQP4 expressed in HEK-FS cells (human) (UniProt P55087); experiment: native gel or EMSA; 2D BN/SDS-PAGE: 3-9% gradient blue native PAGE then 13% SDS-PAGE, AQP4 immunoblot; whole cells lysed in BN buffer (1% DDM, 12 mM NaCl, 500 mM 6-aminohexanoic acid, 20 mM Bis-Tris pH 7.0)

Substance	binding [1]	binding [2]	binding [3]
human M23-AQP4 expressed in DI TNC1 cells (from UniProt P55087-2 1-301)	binds	binds	–
human M23-AQP4 expressed in HEK-FS cells (from UniProt P55087-2 1-301)	–	–	binds
